The values below come from patent EP2158221B1.

By UniProt entry, the sequences of proteins in these tests, tags left out. Residues count along the entry.
UniProt P31994, residues 43-217: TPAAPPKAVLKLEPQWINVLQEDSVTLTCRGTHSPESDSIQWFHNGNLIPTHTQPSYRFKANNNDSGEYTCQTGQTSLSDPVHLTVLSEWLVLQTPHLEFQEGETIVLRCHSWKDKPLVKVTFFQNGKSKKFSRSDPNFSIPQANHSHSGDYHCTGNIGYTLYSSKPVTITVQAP

Substitutions are numbered along the chain they refer to. Results are given in words; binding and its absence hold for the method and conditions named. Some binding calls cover weakened binding; strength is not graded here.

For this assay, the target named is CD32B-Fc (UniProt P31994). As to the kind of experiment: competition ELISA on coated CD32B-Fc; competitor anti-CD32B antibody 50 ng/ml. On the technique in general: In an ELISA, binding on a coated surface is turned into a signal by an enzyme label.

B1: CD32B-CD79-1 bispecific diabody (bispecific antibody)
chain 1: DVVMTQSPLSLPVTLGQPASISCKSSQSLLDSDGKTYLNWFQQRPGQSPNRLIYLVSKLDSGVPDRFSGSGSGTDFTLKISRVEAEDVGVYYCWQGTHFPLTFGGGTKLEIKGGGSGGGGEVQLVESGGGLVQPGGSLRLSCAASGFTFSDAWMDWVRQAPGKGLEWVAEIRNKAKNHATYYAESVIGRFTISRDDAKNSLYLQMNSLRAEDTAVYYCGALGLDYWGQGTLVTVSSLGGC
chain 2: DIQMTQSPSSLSASVGDRVTITCRASQEISGYLSWLQQKPGKAPRRLIYAASTLDSGVPSRFSGSESGTEFTLTISSLQPEDFATYYCLQYFSYPLTFGGGTKVEIKGGGSGGGGQVQLVQSGAEVKKPGASVKVSCKASGYTFTSYWMNWVRQAPGQGLEWIGMIDPSDSETHYNQMFKDRVTMTTDTSTSTAYMELRSLRSDDTAVYYCARAMGYWGQGTTVTVSSLGGC
Turning to B1, the binding result is listed as “binds”.

B2: CD32B-CD79-2 bispecific diabody (bispecific antibody)
chain 1: B1 chain 1
chain 2: B1 chain 2 with M178K
On to B2, for which the binding entry was “binds”.
